Data taken from article PMC6968488, “In vitro and in vivo evaluation of didymin cyclodextrin inclusion complexes: characterization and chemosensitization activity” (Drug Delivery, 2019).

Tested on: MCF-7 cells
Experiment: MTT cytotoxicity / chemosensitivity assay, sensitive tumor cells
Format: cell-based
Conditions: Homo sapiens, MCF7; MCF-7, free DOX
Experimental: The cytotoxicity of didymin on various cell lines was examined by MTT assay as previously reported (Yao et al., [2019]). The didymin solution was prepared by dissolving in DMSO at different concentrations and diluted with the fresh medium right before the treatment. The didymin inclusion complex was dispersed in the sterilized water and then diluted with the fresh medium before treatment. Experiments involving healthy cells (HUVEC, H9C2, and PC12) by culturing 100 μL cell suspension (5 × 10^4 cell/mL) in 96 well plates. After 24 h incubation, the didymin or didymin inclusion complexes contained medium was used to replace the overnight medium and cultured for 48 h, respectively. After that, the MTT solution at the concentration of 5 mg/mL was added to each well. After 4 h incubation, the medium was removed, and the MTT formazan was dissolved by DMSO. Then the DMSO solution is measured using a microplate reader with the absorbance wavelength at 570 nm. The untreated cells were used as control. The cell viability (%) was calculated as follows, cell viability (%) = Asample/Acontrol ×100.
The MCF-7 and MCF-7/ADR cells cytotoxicity of the combination of didymin and doxorubicin were evaluated by MTT assay, as mentioned above.

Work on `COc1cccc2c1C(=O)c1c(O)c3c(c(O)c1C2=O)C[C@@](O)(C(=O)CO)C[C@@H]3O[C@H]1C[C@H](N)[C@H](O)[C@H](C)O1` [DOX, doxorubicin, reference compound] yielded an IC50 of 2260 ± 470 nM.
